These are yes or no findings as the source states them, for the method shown. Some entries that bind do so weakly or less than the wild type. Each block holds one binder with its values, some of them ahead of it.
What was measured:
BMP6 (human) = BMP6 (human) (UniProt P22004); test: SPR (Biacore); BMP10pro-Fc captured via anti-Fc antibody, ligand injected
BMP10 (human) [1] = biological target: T1, BMP10 (human) (UniProt O95393); test: SPR kinetics
T1 sequence: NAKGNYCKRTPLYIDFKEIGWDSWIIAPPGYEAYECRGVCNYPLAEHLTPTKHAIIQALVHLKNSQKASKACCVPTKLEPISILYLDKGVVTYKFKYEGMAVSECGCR

Amino acid sequences for entries named in this document (tags omitted). Residues count along the entry.
UniProt P22004, residues 382-513: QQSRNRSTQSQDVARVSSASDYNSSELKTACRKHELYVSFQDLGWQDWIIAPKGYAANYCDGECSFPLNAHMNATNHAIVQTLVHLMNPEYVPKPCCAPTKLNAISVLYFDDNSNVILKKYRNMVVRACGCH

BMP10 (human) [2] = biological target: T1, BMP10 (human); test: SPR ligand panel
BMP9 (human) [3] = biological target: T2, BMP9 (human) (UniProt Q9UK05); test: SPR ligand panel
T2 sequence (looked up): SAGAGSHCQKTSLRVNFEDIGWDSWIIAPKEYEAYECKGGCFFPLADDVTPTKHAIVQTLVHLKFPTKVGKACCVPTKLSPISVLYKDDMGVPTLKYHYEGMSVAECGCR

BMP10 (human) [4] = biological target: T1, BMP10 (human); test: SPR ligand panel; ligand at 5 nM; ++++ means KD < 1 nM
BMP9 (human) [5] = biological target: T2, BMP9 (human); test: as above
BMP10 (human) [6] = biological target: T1, BMP10 (human); test: SPR screen; captured hENG-hFc, soluble ligand at 100 nM; ++++ means KD < 1 nM
BMP9 (human) [7] = biological target: T2, BMP9 (human); test: as above
BMP10 (human) [8] = biological target: T1, BMP10 (human); test: SPR (Biacore); ligand amine-coupled to CM5 chip
BMP9 (human) [9] = biological target: T2, BMP9 (human); test: SPR (Biacore); ligand amine-coupled to CM5 chip

B1: BMP10pro(22-312)-mFc (Fc fusion, not shown: a dimerising Fc or GST)
chain: SPIMNLEQSPLEEDMSLFGDVFSEQDGVDFNTLLQSMKDEFLKTLNLSDIPTQDSAKVDPPEYMLELYNKFATDRTSMPSANIIRSFKNEDLFSQPVSFNGLRKYPLLFNVSIPHHEEVIMAELRLYTLVQRDRMIYDGVDRKITIFEVLESKGDNEGERNMLVLVSGEIYGTNSEWETFDVTDAIRRWQKSGSSTHQLEVHIESKHDEAEDASSGRLEIDTSAQNKHNPLLIVFSDDQSSDKERKEELNEMISHEQLPELDNLGLDSFSSGPGEEALLQMRSNIIYDSTA
- binding (BMP6 (human)): binds

B4: BMP10pro(22-315)-mFc (Fc fusion, not shown: a dimerising Fc or GST)
chain: SPIMNLEQSPLEEDMSLFGDVFSEQDGVDFNTLLQSMKDEFLKTLNLSDIPTQDSAKVDPPEYMLELYNKFATDRTSMPSANIIRSFKNEDLFSQPVSFNGLRKYPLLFNVSIPHHEEVIMAELRLYTLVQRDRMIYDGVDRKITIFEVLESKGDNEGERNMLVLVSGEIYGTNSEWETFDVTDAIRRWQKSGSSTHQLEVHIESKHDEAEDASSGRLEIDTSAQNKHNPLLIVFSDDQSSDKERKEELNEMISHEQLPELDNLGLDSFSSGPGEEALLQMRSNIIYDSTARIR
- binding (BMP6 (human)): binds

B5: ALK1-mFc (Fc fusion, mouse, UniProt Q61288 23-119, looked up, not shown: small tags and cut ends; a dimerising Fc or GST)
chain: DLAKPSKLVNCTCESPHCKRPFCQGSWCTVVLVREQGRHPQVYRGCGSLNQELCLGRPTEFLNHHCCYRSFCNHNVSLMLEATQTPSEEPEVDAHLP
- binding (BMP10 (human) [8]): binds
- binding (BMP9 (human) [9]): binds

Results, then the binder that gave them:

- binding (BMP10 (human) [1]): binds
- binding (BMP10 (human) [2]): binds
- binding (BMP9 (human) [3]): binds
- binding (BMP10 (human) [4]): binds
- binding (BMP9 (human) [5]): binds
- binding (BMP10 (human) [6]): binds
- binding (BMP9 (human) [7]): binds
B2: hENG(26-437)-hFc (Fc fusion, not shown: small tags and cut ends; a dimerising Fc or GST)
chain: ETVHCDLQPVGPERGEVTYTTSQVSKGCVAQAPNAILEVHVLFLEFPTGPSQLELTLQASKQNGTWPREVLLVLSVNSSVFLHLQALGIPLHLAYNSSLVTFQEPPGVNTTELPSFPKTQILEWAAERGPITSAAELNDPQSILLRLGQAQGSLSFCMLEASQDMGRTLEWRPRTPALVRGCHLEGVAGHKEAHILRVLPGHSAGPRTVTVKVELSCAPGDLDAVLILQGPPYVSWLIDANHNMQIWTTGEYSFKIFPEKNIRGFKLPDTPQGLLGEARMLNASIVASFVELPLASIVSLHASSCGGRLQTSPAPIQTTPPKDTCSPELLMSLIQTKCADDAMTLVLKKELVAHLKCTITGLTFWDPSCEAEDRGDKFVLRSAYSSCGMQVSASMISNEAVVNILSSSSPQR

- binding (BMP10 (human) [6]): binds
- binding (BMP9 (human) [7]): binds
B3: hENG(26-581)-hFc (Fc fusion, not shown: small tags and cut ends; a dimerising Fc or GST)
chain: ETVHCDLQPVGPERGEVTYTTSQVSKGCVAQAPNAILEVHVLFLEFPTGPSQLELTLQASKQNGTWPREVLLVLSVNSSVFLHLQALGIPLHLAYNSSLVTFQEPPGVNTTELPSFPKTQILEWAAERGPITSAAELNDPQSILLRLGQAQGSLSFCMLEASQDMGRTLEWRPRTPALVRGCHLEGVAGHKEAHILRVLPGHSAGPRTVTVKVELSCAPGDLDAVLILQGPPYVSWLIDANHNMQIWTTGEYSFKIFPEKNIRGFKLPDTPQGLLGEARMLNASIVASFVELPLASIVSLHASSCGGRLQTSPAPIQTTPPKDTCSPELLMSLIQTKCADDAMTLVLKKELVAHLKCTITGLTFWDPSCEAEDRGDKFVLRSAYSSCGMQVSASMISNEAVVNILSSSSPQRKKVHCLNMDSLSFQLGLYLSPHFLQASNTIEPGQQSFVQVRVSPSVSEFLLQLDSCHLDLGPEGGTVELIQGRAAKGNCVSLLSPSPEGDPRFSFLLHFYTVPIPKTGTLSCTVALRPKTGSQDQEVHRTVFMRLNIISPDLSG
